The structures given here were assigned with low confidence; some may be wrong.
Columns and labels:
[1] = target: RET (658-1114) (Homo sapiens, UniProt P07949); assay: HiBiT-Degradation, RET wild-type degradation assay (Nano-Glo HiBiT Lytic), 293T.144 cells; settings: for 293T.144 RET (658-1114) 6.0 hours (Emax): % remaining protein; for DC50: read-out: 293T.144 RET (658-1114) 6.0 hours (DC50), half-maximal degradation concentration
From the text: (§1) Dulbecco's modified Eagle medium (DMEM) no-phenol red media and fetal bovine serum (FBS) were purchased from Gibco (Grand Island, NY, USA). Cell lines ectopically expressing wild-type or G810R RET kinase domain fused with a HiBiT tag were generated in-house (293T. 144 and 293T. 165, respectively). Cell culture flasks and 384-well microplates were acquired from VWR (Radnor, PA, USA). The Nano-Glo® HiBiT Lytic Assay System was purchased from Promega (Madison, WI, USA).
(§2) RET wild-type (WT) and G810R degradation were assessed using the Nano-Glo® HiBiT Lytic assay (Promega, Medison, WI, USA). To determine the effect of degraders on protein levels, cells were plated in 384-well plates and treated with compounds of interest in duplicates for 6 hours using an 11-point half-log dilution series, with the highest dose set at 10 μM. Cell lysis and addition of the Nano-Glo® HiBiT Lytic Assay reagents was then performed. Luminescence signal was measured using an EnVision™ Multimode plate reader (Perkin Elmer, Santa Clara, CA, USA). The half-maximal degradation concentration (DC50) and % remaining protein (Emax) was then derived from the dose-response curves.

Amino acid sequences for entries named in this document (tags omitted). A change or cut given only in a name is not applied to a line headed by its entry. Residues count along the entry.
UniProt P07949, 658-1114 limits assumed: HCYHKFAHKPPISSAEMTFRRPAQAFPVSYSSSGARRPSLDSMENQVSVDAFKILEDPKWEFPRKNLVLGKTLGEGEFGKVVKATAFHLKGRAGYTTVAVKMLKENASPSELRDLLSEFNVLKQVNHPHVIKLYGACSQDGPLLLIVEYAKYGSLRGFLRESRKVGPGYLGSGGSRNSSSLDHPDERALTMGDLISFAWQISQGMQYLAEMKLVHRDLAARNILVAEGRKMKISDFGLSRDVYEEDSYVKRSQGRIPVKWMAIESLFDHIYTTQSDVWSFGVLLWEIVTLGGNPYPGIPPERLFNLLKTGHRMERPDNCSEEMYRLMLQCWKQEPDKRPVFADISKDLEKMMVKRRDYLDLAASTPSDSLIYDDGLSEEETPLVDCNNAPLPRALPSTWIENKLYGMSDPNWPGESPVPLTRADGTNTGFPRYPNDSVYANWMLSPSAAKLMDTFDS
UniProt P07949, 658-1114 G810R limits assumed: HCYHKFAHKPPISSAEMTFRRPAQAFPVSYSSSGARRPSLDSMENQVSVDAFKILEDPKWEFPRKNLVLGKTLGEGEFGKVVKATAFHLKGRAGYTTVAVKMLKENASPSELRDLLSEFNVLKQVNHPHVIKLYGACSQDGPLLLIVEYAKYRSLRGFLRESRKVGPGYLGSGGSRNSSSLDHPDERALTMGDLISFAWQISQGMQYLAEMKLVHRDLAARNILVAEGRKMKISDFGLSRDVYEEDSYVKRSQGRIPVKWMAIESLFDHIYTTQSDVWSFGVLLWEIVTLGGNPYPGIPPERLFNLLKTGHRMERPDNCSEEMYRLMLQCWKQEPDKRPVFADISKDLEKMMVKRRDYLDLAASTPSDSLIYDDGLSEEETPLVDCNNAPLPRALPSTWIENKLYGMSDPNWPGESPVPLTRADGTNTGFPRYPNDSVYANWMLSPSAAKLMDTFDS

[2] = target: RET(KD: 658-1114 G810R) (Homo sapiens, UniProt P07949, G810R); assay: HiBiT-Degradation, RET G810R degradation assay (Nano-Glo HiBiT Lytic), 293T.165 cells; settings: for 293T.165 RET(KD: 658-1114 G810R) 6.0 hours (Emax): % remaining protein; for 293T.165 RET(KD: 658-1114 G810R) 6.0 hours (DC50) [nM]: half-maximal degradation concentration
From the text: as §1, §2

CCC1(C(=O)NC(C)C)CCN(c2ccc(-c3nc(-c4cnn(C5CCN(C(=O)CN6CCC(c7ccc8c(c7)CCN8C7CCC(=O)NC7=O)CC6)CC5)c4)cn4ncc(C#N)c34)cn2)CC1 (stereo not drawn)
293T.144 RET (658-1114) 6.0 hours (IP) [nM] [1]: ++++ (<50 nM = ++++)
293T.144 RET (658-1114) 6.0 hours (Emax) [1]: ++++ (<30% = ++++)
DC50 [1]: < 50 nM
293T.165 RET(KD: 658-1114 G810R) 6.0 hours (IP) [nM] [2]: ++++ (<50 nM = ++++)
293T.165 RET(KD: 658-1114 G810R) 6.0 hours (Emax) [2]: +++ (<50% = +++)
293T.165 RET(KD: 658-1114 G810R) 6.0 hours (DC50) [nM] [2]: +++ (<100 nM = +++)

CCC1(C(=O)NC2CCOCC2)CCN(c2ccc(-c3nc(-c4cnn(C5CCN(C(=O)CN6CCC(c7ccc(NC8CCC(=O)NC8=O)cc7F)CC6)CC5)c4)cn4ncc(C#N)c34)cn2)CC1 (stereo not drawn)
293T.144 RET (658-1114) 6.0 hours (IP) [nM] [1]: ++++ (<50 nM = ++++)
293T.144 RET (658-1114) 6.0 hours (Emax) [1]: ++++ (<30% = ++++)
DC50 [1]: < 50 nM
293T.165 RET(KD: 658-1114 G810R) 6.0 hours (IP) [nM] [2]: ++++ (<50 nM = ++++)
293T.165 RET(KD: 658-1114 G810R) 6.0 hours (Emax) [2]: ++++ (<30% = ++++)
293T.165 RET(KD: 658-1114 G810R) 6.0 hours (DC50) [nM] [2]: ++++ (<50 nM = ++++)

— patent US12661410B2, “Compounds for targeted degradation of RET” (C4 Therapeutics, Inc., priority 2020, dated 2026)
